Here are results for five compounds from patent US20240360146A1, “BRUTON'S TYROSINE KINASE AND MUTANT DEGRADER, COMPOSITION AND APPLICATION THEREOF” (HANGZHOU HEALZEN THERAPEUTICS CO., LTD., priority 2021, published 2024).

Protein sequences, listed by entry. Tags and fused reporters are not part of them.
UniProt Q06187, whole entry: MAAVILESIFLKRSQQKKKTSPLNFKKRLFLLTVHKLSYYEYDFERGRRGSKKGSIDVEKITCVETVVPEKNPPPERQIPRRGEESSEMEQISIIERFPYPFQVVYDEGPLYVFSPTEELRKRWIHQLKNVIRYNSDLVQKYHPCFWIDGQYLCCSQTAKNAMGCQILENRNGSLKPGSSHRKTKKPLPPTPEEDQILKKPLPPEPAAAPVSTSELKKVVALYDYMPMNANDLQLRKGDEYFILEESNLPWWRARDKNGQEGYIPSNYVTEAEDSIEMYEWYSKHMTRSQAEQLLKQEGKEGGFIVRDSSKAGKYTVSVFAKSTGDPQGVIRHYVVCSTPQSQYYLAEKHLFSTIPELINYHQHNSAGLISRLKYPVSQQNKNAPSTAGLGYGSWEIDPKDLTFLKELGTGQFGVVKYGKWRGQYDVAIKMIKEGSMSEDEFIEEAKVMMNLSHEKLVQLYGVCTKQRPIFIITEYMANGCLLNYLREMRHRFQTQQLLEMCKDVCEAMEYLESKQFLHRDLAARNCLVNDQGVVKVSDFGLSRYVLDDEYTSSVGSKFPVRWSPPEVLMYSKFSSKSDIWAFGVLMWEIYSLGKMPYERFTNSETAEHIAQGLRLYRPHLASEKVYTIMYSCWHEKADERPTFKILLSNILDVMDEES

For one assay, the system named is Mino cells. The assay can be described thus: Inhibitory activity on Mino cell proliferation (MTS). Conditions: read-out: Mino IC50, 168 h incubation. On the procedure:
(§1) The anti-tumor efficacy of the compounds was tested by measuring their inhibitory effects on OCI-LY10 and Mino cell proliferation. OCI-LY10 and Mino cells were cultured in RPMI-1640 medium containing 10% fetal calf serum. OCI-LY10 and Mino cells were digested, inoculated in a 96-well plate at a cell concentration of 10000 cells/well, and incubated overnight at 37° C., 5% CO2. Compounds of different concentrations (1000 nM, 4-fold dilution, 8 points) were added to the 96-well plate and incubated for 72 h (LY10) or 168 h (Mino) at 37° C. and 5% CO2, and then 20 uL of MTS was added to each well. After incubation for 2 h, 25 μl of 10% SDS was added to each well to terminate the reaction. The absorbance at 490 nm and 650 nm were measured with a microplate reader. IC50 was calculated using GraphPad Prism 5.0.

The target in another assay is BTK (Homo sapiens, UniProt Q06187). Put plainly: BTK degradation activity test in Mino cells. The settings on record: read-out: DC50 (BTK degradation activity), 16 h incubation, Western blot or Elisa. The procedure:
Mino cell line cells were seeded at 500,000 to 1,000,000 cells/well in a 6-well plate. The compounds were diluted to different concentrations and added to the plate, and after 16 h of incubation, cells were harvested. After lysing the cells, the total protein concentration in each well was determined using the BCA method. The amount of BTK was determined using Western blot or Elisa method. The amount of undegraded BTK protein at each drug concentration was compared with the amount of BTK protein in the blank control group to calculate the degradation rate. The degradation curve was drawn based on the degradation rate at each concentration, and the half degradation concentration (DC50) was calculated by fitting.
(In general: A western blot detects proteins with antibodies after separation by electrophoresis.)

For a further assay, the system named is OCI-LY10 cells. The assay can be described thus: Inhibitory activity on OCI-LY10 cell proliferation (MTS). Conditions: read-out: OCI-LY10 IC50, 72 h. The procedure:
as §1

As usually defined, the IC50 is the point on the concentration scale where inhibition reaches its midpoint. A word on the DC50: it is the midpoint of the concentration-degradation curve.

Molecules are shown by their SMILES. The structures given here were assigned with low confidence; some may be wrong. A value given as a limit tells only on which side of the number the result lay.

In the case of `CN1CCN([C@@H]2CCCN(c3nnc(C(N)=O)c(Nc4ccc(C5CCN(CC6(F)CCN(c7ccc8c(c7)C(=O)N(C7CCC(=O)NC7=O)C8=O)CC6)CC5)cc4)n3)C2)C1=O` (stereo partly drawn), the IC50 in the assay on Mino cells is 4.98 nM; in the assay on OCI-LY10 cells it was 0.72 nM. The DC50 at BTK was < 1 nM.

As to `CN1CCN([C@@H]2CCCN(c3nnc(C(N)=O)c(Nc4ccc(N5CCN(CC6CCN(c7ccc8c(c7)C(=O)N(C7CCC(=O)NC7=O)C8=O)C6)CC5)c(F)c4F)n3)C2)C1=O` (stereo partly drawn), the DC50 on BTK was < 1 nM. Take `CN1CCN([C@@H]2CCCN(c3nnc(C(N)=O)c(Nc4ccc(N5CCN(CC6CCN(c7ccc8c(c7)CN(C7CCC(=O)NC7=O)C8=O)C6)CC5)c(F)c4)n3)C2)C1=O` (stereo partly drawn): the IC50 was 6.85 nM in the assay on Mino cells and < 1 nM in the assay with OCI-LY10 cells. For the same compound, the DC50 on BTK is < 1 nM. On to `CN1CCN([C@@H]2CCCN(c3nnc(C(N)=O)c(Nc4ccc(N5CCN(CC6CCN(c7ccc8c(c7)C(=O)N(C7CCC(=O)NC7=O)C8=O)C6)CC5)c(C(F)(F)F)c4)n3)C2)C1=O` (stereo partly drawn), for which the DC50 on BTK is < 1 nM. `CN1CCN([C@@H]2CCCN(c3nnc(C(N)=O)c(Nc4cc(F)c(N5CCN(CC6CCN(c7ccc8c(c7)C(=O)N(C7CCC(=O)NC7=O)C8=O)C6)CC5)cc4F)n3)C2)C1=O` (stereo partly drawn): the DC50 at BTK was < 1 nM.
